# Assay results: the supplement of paper PMC8728848
# The other results are listed elsewhere or left out.
# B1: TbCVNHOa (Tuber borchii), Q5MK11 (protein)
# chain: MSYADSSRNAVLTNGGRTLRAECRNADGNWVTSELDLDTCIGNPNGFLGWGMQNFSHSSEDIKLEEGGRKLTCRPKTVDGGFRERQGIDLNRIQNVNGRLVFQ
# How the values were obtained:
# Assay in all cases: glycan array binding signal (z-score within array); higher = stronger binding
# Settings in all cases: glycan notation: IUPAC condensed, linker removed
# Fuc(a1-2)Gal = target: Fuc(a1-2)Gal
# Outline: (§1)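 The Consortium for Functional Glycomics database supplied 3228 glycan arrays, of which those lacking an available protein sequence were dropped. The binding signal, a within-array Z-score, was averaged across arrays of the same protein sequence and across linkers. Negative scores can be read as non-binding.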
# Fuc(a1-2)Gal(b1-3)GalNAc = target: Fuc(a1-2)Gal(b1-3)GalNAc
# Outline: as §1
# [1] = target: Fuc(a1-2)Gal(b1-3)GalNAc(b1-3)Gal
# Outline: as §1
# [2] = target: Fuc(a1-2)Gal(b1-3)GalNAc(b1-3)Gal(a1-4)Gal(b1-4)Glc
# Outline: as §1
# [3] = target: Fuc(a1-2)Gal(b1-3)GalNAc(b1-4)[Neu5Ac(a2-3)]Gal(b1-4)Glc
# Outline: as §1
# Fuc(a1-2)Gal(b1-3)GlcNAc = target: Fuc(a1-2)Gal(b1-3)GlcNAc
# Outline: as §1
# [4] = target: Fuc(a1-2)Gal(b1-3)GlcNAc(b1-3)Gal(b1-4)Glc
# Outline: as §1
# [5] = target: Fuc(a1-2)Gal(b1-3)[Fuc(a1-4)]GlcNAc
# Outline: as §1
# Fuc(a1-2)Gal(b1-4)Glc = target: Fuc(a1-2)Gal(b1-4)Glc
# Outline: as §1
# Fuc(a1-2)Gal(b1-4)Glc6S = target: Fuc(a1-2)Gal(b1-4)Glc6S
# Outline: as §1
# Fuc(a1-2)Gal(b1-4)GlcNAc = target: Fuc(a1-2)Gal(b1-4)GlcNAc
# Outline: as §1
# [6] = target: Fuc(a1-2)Gal(b1-4)GlcNAc(b1-2)Man(a1-3)[Fuc(a1-2)Gal(b1-4)GlcNAc(b1-2)Man(a1-6)]Man(b1-4)GlcNAc(b1-4)GlcNAc
# Outline: as §1
# [7] = target: Fuc(a1-2)Gal(b1-4)GlcNAc(b1-2)Man(a1-6)[Gal(b1-4)GlcNAc(b1-2)Man(a1-3)]Man(b1-4)GlcNAc(b1-4)GlcNAc
# Outline: as §1
# [8] = target: Fuc(a1-2)Gal(b1-4)GlcNAc(b1-3)Gal(b1-4)GlcNAc
# Outline: as §1
# [9] = target: Fuc(a1-2)Gal(b1-4)GlcNAc(b1-3)Gal(b1-4)GlcNAc(b1-3)Gal(b1-4)GlcNAc
# Outline: as §1
# [10] = target: Fuc(a1-2)Gal(b1-4)GlcNAc6S
# Outline: as §1
# [11] = target: Fuc(a1-2)Gal(b1-4)[Fuc(a1-3)]GlcNAc
# Outline: as §1
# [12] = target: Fuc(a1-2)Gal(b1-4)[Fuc(a1-3)]GlcNAc(b1-3)Gal(b1-4)[Fuc(a1-3)]GlcNAc
# Outline: as §1
# [13] = target: Fuc(a1-2)Gal(b1-4)[Fuc(a1-3)]GlcNAc(b1-3)Gal(b1-4)[Fuc(a1-3)]GlcNAc(b1-3)Gal(b1-4)[Fuc(a1-3)]GlcNAc
# Outline: as §1
# Fuc(a1-2)Gal6S(b1-4)Glc = target: Fuc(a1-2)Gal6S(b1-4)Glc
# Outline: as §1
# [14] = target: Fuc(a1-2)Gal6S(b1-4)Glc6S
# Outline: as §1
# [15] = target: Fuc(a1-2)Gal6S(b1-4)GlcNAc
# Outline: as §1
# Fuc(a1-2)[Gal(a1-3)]Gal = target: Fuc(a1-2)[Gal(a1-3)]Gal
# Outline: as §1
# [16] = target: Fuc(a1-2)[Gal(a1-3)]Gal(b1-3)GlcNAc
# Outline: as §1
# [17] = target: Fuc(a1-2)[Gal(a1-3)]Gal(b1-4)Glc
# Outline: as §1
# [18] = target: Fuc(a1-2)[Gal(a1-3)]Gal(b1-4)GlcNAc
# Outline: as §1
# [19] = target: Fuc(a1-2)[Gal(a1-3)]Gal(b1-4)[Fuc(a1-3)]GlcNAc
# Outline: as §1
# [20] = target: Fuc(a1-2)[Gal(a1-4)]Gal(b1-4)GlcNAc
# Outline: as §1
# [21] = target: Fuc(a1-2)[GalNAc(a1-3)]Gal
# Outline: as §1
# [22] = target: Fuc(a1-2)[GalNAc(a1-3)]Gal(b1-3)GlcNAc
# Outline: as §1
# [23] = target: Fuc(a1-2)[GalNAc(a1-3)]Gal(b1-4)Glc
# Outline: as §1
# [24] = target: Fuc(a1-2)[GalNAc(a1-3)]Gal(b1-4)GlcNAc
# Outline: as §1
# [25] = target: Fuc(a1-2)[GalNAc(a1-3)]Gal(b1-4)[Fuc(a1-3)]GlcNAc
# Outline: as §1
# [26] = target: Fuc(a1-2)[GalNAc(a1-4)]Gal(b1-4)GlcNAc
# Outline: as §1
# [27] = target: Fuc(a1-2)[GalNAc(b1-3)]Gal
# Outline: as §1
# Fuc(a1-3)GlcNAc = target: Fuc(a1-3)GlcNAc
# Outline: as §1
# [28] = target: Fuc(a1-3)[Gal(b1-4)]Glc6S
# Outline: as §1
# [29] = target: Fuc(a1-3)[Gal(b1-4)]GlcNAc
# Outline: as §1
# [30] = target: Fuc(a1-3)[Gal(b1-4)]GlcNAc(b1-3)Gal(b1-3)[Fuc(a1-4)]GlcNAc
# Outline: as §1
# [31] = target: Fuc(a1-3)[Gal(b1-4)]GlcNAc(b1-4)Gal(b1-4)[Fuc(a1-3)]GlcNAc
# Outline: as §1
# [32] = target: Fuc(a1-3)[Gal(b1-4)]GlcNAc(b1-4)Gal(b1-4)[Fuc(a1-3)]GlcNAc(b1-4)Gal(b1-4)[Fuc(a1-3)]GlcNAc
# Outline: as §1
# [33] = target: Fuc(a1-3)[Gal(b1-4)]GlcNAc6S
# Outline: as §1
# [34] = target: Fuc(a1-3)[Gal3S(b1-4)]Glc6S
# Outline: as §1
# [35] = target: Fuc(a1-3)[Gal3S(b1-4)]GlcNAc
# Outline: as §1
# [36] = target: Fuc(a1-3)[Gal3S(b1-4)]GlcNAc6S
# Outline: as §1
# [37] = target: Fuc(a1-3)[GalNAc(b1-4)]GlcNAc
# Outline: as §1
# Fuc(a1-4)GlcNAc = target: Fuc(a1-4)GlcNAc
# Outline: as §1
# Fuc(b1-3)GlcNAc = target: Fuc(b1-3)GlcNAc
# Outline: as §1
# Gal(a1-2)Gal = target: Gal(a1-2)Gal
# Outline: as §1
# Gal(a1-3)Gal = target: Gal(a1-3)Gal
# Outline: as §1
# Gal(a1-3)Gal(b1-3)GlcNAc = target: Gal(a1-3)Gal(b1-3)GlcNAc
# Outline: as §1
# Gal(a1-3)Gal(b1-4)Glc = target: Gal(a1-3)Gal(b1-4)Glc
# Outline: as §1
# Gal(a1-3)Gal(b1-4)GlcNAc = target: Gal(a1-3)Gal(b1-4)GlcNAc
# Outline: as §1
# [38] = target: Gal(a1-3)Gal(b1-4)[Fuc(a1-3)]GlcNAc
# Outline: as §1
# Gal(a1-3)GalNAc = target: Gal(a1-3)GalNAc
# Outline: as §1
# [39] = target: Gal(a1-3)[Gal(a1-4)]Gal(b1-4)GlcNAc
# Outline: as §1
# Gal(a1-4)Gal(b1-4)Glc = target: Gal(a1-4)Gal(b1-4)Glc
# Outline: as §1
# Gal(a1-4)Gal(b1-4)GlcNAc = target: Gal(a1-4)Gal(b1-4)GlcNAc
# Outline: as §1
# Gal(a1-4)GlcNAc = target: Gal(a1-4)GlcNAc
# Outline: as §1
# Gal(a1-6)Glc = target: Gal(a1-6)Glc
# Outline: as §1
binder,measurement,setting,value
B1,glycan array binding signal (z-score),Fuc(a1-2)Gal,-0.164
same,glycan array binding signal (z-score),Fuc(a1-2)Gal(b1-3)GalNAc,0.369
same,glycan array binding signal (z-score),[1],-0.109
same,glycan array binding signal (z-score),[2],0.222
same,glycan array binding signal (z-score),[3],-0.205
same,glycan array binding signal (z-score),Fuc(a1-2)Gal(b1-3)GlcNAc,0.083
same,glycan array binding signal (z-score),[4],1.94
same,glycan array binding signal (z-score),[5],-0.174
same,glycan array binding signal (z-score),Fuc(a1-2)Gal(b1-4)Glc,-0.265
same,glycan array binding signal (z-score),Fuc(a1-2)Gal(b1-4)Glc6S,-0.357
same,glycan array binding signal (z-score),Fuc(a1-2)Gal(b1-4)GlcNAc,-0.042
same,glycan array binding signal (z-score),[6],-0.564
same,glycan array binding signal (z-score),[7],-0.642
same,glycan array binding signal (z-score),[8],-0.226
same,glycan array binding signal (z-score),[9],-0.116
same,glycan array binding signal (z-score),[10],0.067
same,glycan array binding signal (z-score),[11],-0.224
same,glycan array binding signal (z-score),[12],0.224
same,glycan array binding signal (z-score),[13],-0.082
same,glycan array binding signal (z-score),Fuc(a1-2)Gal6S(b1-4)Glc,0.174
same,glycan array binding signal (z-score),[14],0.121
same,glycan array binding signal (z-score),[15],0.327
same,glycan array binding signal (z-score),Fuc(a1-2)[Gal(a1-3)]Gal,-0.087
same,glycan array binding signal (z-score),[16],-0.383
same,glycan array binding signal (z-score),[17],-0.167
same,glycan array binding signal (z-score),[18],-0.499
same,glycan array binding signal (z-score),[19],-0.023
same,glycan array binding signal (z-score),[20],0.988
same,glycan array binding signal (z-score),[21],0.21
same,glycan array binding signal (z-score),[22],0.743
same,glycan array binding signal (z-score),[23],-0.367
same,glycan array binding signal (z-score),[24],-0.035
same,glycan array binding signal (z-score),[25],0.211
same,glycan array binding signal (z-score),[26],-0.056
same,glycan array binding signal (z-score),[27],-0.153
same,glycan array binding signal (z-score),Fuc(a1-3)GlcNAc,0.408
same,glycan array binding signal (z-score),[28],-0.197
same,glycan array binding signal (z-score),[29],-0.024
same,glycan array binding signal (z-score),[30],-0.039
same,glycan array binding signal (z-score),[31],0.381
same,glycan array binding signal (z-score),[32],0.03
same,glycan array binding signal (z-score),[33],0.259
same,glycan array binding signal (z-score),[34],0.016
same,glycan array binding signal (z-score),[35],-0.153
same,glycan array binding signal (z-score),[36],-0.101
same,glycan array binding signal (z-score),[37],0.07
same,glycan array binding signal (z-score),Fuc(a1-4)GlcNAc,-0.164
same,glycan array binding signal (z-score),Fuc(b1-3)GlcNAc,0.478
same,glycan array binding signal (z-score),Gal(a1-2)Gal,-0.134
same,glycan array binding signal (z-score),Gal(a1-3)Gal,0.016
same,glycan array binding signal (z-score),Gal(a1-3)Gal(b1-3)GlcNAc,-0.161
same,glycan array binding signal (z-score),Gal(a1-3)Gal(b1-4)Glc,1.45
same,glycan array binding signal (z-score),Gal(a1-3)Gal(b1-4)GlcNAc,-0.428
same,glycan array binding signal (z-score),[38],-0.54
same,glycan array binding signal (z-score),Gal(a1-3)GalNAc,0.742
same,glycan array binding signal (z-score),[39],0.075
same,glycan array binding signal (z-score),Gal(a1-4)Gal(b1-4)Glc,-0.365
same,glycan array binding signal (z-score),Gal(a1-4)Gal(b1-4)GlcNAc,-0.189
same,glycan array binding signal (z-score),Gal(a1-4)GlcNAc,0.211
same,glycan array binding signal (z-score),Gal(a1-6)Glc,0.212

# A stretch from further up, for reference:
binder,measurement,setting,value
B1,glycan array binding signal (z-score),[24],-0.035
same,glycan array binding signal (z-score),[25],0.211
same,glycan array binding signal (z-score),[26],-0.056
